Eleven targets from the supplement of paper PMC12819154, “High-throughput peptide-centric local stability assay extends protein–ligand identification to membrane proteins, tissues and bacteria” (Nature Structural & Molecular Biology, 2025) can be followed below.

Protein sequences, listed by entry. Tags and fused reporters are not part of them. Lines headed by an entry give the natural chain unless they say otherwise; changes in a name come on top.
UniProt P97794: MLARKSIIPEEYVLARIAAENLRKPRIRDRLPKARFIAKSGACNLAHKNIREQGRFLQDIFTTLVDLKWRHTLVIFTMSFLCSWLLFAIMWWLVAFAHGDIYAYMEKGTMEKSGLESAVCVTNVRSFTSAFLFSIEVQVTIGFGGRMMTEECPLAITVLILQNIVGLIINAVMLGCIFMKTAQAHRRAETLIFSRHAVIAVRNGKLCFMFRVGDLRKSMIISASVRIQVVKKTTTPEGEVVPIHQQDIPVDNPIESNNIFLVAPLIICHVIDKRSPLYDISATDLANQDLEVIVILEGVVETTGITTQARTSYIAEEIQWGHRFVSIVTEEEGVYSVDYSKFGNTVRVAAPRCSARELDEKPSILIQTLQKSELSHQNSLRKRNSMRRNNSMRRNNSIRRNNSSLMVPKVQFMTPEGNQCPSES
UniProt P97325: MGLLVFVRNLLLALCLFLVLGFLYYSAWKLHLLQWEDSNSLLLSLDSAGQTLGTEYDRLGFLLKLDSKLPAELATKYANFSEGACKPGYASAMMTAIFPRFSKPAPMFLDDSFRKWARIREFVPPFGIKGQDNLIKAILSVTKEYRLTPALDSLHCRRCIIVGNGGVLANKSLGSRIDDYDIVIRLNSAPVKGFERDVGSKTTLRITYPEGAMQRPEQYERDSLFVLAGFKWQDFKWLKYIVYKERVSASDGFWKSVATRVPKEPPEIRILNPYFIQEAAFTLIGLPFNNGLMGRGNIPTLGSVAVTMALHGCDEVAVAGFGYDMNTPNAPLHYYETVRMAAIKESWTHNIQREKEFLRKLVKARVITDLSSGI
UniProt P97447: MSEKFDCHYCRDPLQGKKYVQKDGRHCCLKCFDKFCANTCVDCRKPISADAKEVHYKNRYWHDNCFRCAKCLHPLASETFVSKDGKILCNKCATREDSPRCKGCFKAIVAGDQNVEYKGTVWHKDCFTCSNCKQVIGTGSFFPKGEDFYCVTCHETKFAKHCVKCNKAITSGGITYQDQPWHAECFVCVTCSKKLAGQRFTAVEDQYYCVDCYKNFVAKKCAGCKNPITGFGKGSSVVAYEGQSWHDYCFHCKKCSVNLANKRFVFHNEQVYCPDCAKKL
UniProt Q01721: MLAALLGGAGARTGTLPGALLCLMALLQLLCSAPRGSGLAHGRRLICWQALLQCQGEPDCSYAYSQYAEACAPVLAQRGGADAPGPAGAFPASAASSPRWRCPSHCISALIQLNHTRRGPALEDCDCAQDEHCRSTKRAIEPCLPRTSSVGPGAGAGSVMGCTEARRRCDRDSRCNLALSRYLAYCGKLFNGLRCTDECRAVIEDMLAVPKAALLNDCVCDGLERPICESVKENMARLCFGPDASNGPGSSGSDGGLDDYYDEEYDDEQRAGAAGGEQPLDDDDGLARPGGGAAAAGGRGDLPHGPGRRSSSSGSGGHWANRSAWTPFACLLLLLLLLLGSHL
UniProt Q01514: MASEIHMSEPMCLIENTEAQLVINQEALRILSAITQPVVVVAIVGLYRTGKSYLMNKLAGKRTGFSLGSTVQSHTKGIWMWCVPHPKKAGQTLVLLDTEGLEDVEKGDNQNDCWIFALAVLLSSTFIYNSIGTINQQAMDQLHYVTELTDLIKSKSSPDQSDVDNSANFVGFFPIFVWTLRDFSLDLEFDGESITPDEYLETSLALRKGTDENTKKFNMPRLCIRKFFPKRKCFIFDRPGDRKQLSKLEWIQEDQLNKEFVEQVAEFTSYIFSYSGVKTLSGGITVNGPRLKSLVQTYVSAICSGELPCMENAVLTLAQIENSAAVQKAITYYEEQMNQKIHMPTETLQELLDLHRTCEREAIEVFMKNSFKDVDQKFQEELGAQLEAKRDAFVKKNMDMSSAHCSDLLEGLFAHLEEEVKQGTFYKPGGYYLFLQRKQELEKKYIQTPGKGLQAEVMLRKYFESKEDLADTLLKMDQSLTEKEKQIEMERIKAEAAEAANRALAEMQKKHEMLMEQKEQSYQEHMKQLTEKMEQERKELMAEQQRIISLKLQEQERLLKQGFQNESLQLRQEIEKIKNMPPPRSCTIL
UniProt P97496, whole entry: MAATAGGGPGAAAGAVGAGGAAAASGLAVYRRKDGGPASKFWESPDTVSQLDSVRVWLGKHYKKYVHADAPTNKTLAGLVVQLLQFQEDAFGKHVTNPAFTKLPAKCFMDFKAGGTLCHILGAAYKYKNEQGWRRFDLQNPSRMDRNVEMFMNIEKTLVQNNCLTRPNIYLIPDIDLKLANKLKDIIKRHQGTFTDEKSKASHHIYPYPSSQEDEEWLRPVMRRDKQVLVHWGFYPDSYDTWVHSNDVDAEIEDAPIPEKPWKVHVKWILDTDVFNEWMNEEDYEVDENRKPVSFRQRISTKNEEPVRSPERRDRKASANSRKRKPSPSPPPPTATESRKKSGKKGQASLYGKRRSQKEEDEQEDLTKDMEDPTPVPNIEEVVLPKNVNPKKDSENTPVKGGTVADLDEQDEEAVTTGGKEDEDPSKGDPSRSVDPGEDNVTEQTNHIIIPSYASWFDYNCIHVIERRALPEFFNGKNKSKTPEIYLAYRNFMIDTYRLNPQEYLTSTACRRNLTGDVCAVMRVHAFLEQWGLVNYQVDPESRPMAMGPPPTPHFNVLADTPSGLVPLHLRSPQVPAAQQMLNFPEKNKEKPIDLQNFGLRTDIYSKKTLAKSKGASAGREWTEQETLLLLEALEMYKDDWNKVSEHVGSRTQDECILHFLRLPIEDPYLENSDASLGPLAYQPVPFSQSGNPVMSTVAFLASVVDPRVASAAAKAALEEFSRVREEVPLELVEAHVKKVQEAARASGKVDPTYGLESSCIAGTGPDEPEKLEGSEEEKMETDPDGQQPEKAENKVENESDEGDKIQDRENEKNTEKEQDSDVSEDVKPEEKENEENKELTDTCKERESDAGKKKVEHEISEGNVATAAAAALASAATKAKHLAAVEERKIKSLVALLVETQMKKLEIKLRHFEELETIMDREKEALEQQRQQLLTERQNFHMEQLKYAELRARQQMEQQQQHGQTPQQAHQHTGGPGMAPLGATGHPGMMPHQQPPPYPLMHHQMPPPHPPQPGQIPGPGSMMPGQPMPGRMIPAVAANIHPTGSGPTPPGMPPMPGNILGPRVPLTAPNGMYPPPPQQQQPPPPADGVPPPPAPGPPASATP
UniProt P70274, whole entry: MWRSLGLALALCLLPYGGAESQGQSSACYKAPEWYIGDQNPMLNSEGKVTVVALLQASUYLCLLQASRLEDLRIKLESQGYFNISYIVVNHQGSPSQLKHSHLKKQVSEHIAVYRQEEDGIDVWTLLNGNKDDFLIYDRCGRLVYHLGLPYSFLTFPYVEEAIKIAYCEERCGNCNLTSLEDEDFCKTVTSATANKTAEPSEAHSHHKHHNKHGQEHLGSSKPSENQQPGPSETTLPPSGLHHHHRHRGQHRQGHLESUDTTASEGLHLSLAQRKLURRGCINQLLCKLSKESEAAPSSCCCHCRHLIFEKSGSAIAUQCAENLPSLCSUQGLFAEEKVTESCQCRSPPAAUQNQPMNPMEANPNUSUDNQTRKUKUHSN
UniProt P98078: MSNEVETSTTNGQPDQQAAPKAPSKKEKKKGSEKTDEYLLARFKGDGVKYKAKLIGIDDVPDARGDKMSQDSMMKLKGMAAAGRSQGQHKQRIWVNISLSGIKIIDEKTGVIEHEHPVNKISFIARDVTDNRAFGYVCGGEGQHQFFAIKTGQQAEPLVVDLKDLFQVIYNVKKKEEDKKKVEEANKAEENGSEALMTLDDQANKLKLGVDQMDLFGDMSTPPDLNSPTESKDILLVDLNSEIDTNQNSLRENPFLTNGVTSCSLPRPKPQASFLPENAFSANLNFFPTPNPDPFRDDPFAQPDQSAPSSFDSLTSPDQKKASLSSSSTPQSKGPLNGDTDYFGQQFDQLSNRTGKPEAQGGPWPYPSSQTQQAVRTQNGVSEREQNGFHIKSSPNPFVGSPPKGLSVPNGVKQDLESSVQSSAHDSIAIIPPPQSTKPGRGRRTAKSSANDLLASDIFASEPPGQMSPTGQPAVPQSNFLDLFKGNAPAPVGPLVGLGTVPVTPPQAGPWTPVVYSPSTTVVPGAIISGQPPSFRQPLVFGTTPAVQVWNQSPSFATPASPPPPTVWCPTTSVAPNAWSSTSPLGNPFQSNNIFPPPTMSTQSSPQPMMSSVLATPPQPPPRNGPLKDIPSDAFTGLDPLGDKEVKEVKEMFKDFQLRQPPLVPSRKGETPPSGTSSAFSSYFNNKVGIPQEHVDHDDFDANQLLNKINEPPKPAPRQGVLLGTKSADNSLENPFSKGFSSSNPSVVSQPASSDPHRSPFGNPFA
UniProt P97454: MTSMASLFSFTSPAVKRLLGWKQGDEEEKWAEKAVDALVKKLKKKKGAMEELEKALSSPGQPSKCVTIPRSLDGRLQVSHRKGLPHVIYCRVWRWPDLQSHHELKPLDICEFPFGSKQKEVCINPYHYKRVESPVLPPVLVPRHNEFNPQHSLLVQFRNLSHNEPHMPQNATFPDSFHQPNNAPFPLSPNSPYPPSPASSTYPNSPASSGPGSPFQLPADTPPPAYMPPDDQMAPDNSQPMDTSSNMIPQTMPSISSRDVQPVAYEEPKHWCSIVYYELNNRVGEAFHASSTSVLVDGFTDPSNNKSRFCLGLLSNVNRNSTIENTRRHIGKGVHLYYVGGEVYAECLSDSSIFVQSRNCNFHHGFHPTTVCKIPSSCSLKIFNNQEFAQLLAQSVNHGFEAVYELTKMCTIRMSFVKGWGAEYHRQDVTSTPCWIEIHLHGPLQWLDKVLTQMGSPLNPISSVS
UniProt P70460: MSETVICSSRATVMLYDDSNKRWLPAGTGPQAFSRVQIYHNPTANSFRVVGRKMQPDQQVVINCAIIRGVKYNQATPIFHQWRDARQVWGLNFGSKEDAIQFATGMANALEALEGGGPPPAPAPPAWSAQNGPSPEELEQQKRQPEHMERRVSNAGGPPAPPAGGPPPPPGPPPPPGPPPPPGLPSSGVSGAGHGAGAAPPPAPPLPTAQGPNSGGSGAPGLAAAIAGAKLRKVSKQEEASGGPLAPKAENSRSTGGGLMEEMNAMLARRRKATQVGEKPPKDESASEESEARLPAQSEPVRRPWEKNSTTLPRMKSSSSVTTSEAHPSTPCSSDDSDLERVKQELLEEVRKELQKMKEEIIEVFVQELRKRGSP
UniProt P97311: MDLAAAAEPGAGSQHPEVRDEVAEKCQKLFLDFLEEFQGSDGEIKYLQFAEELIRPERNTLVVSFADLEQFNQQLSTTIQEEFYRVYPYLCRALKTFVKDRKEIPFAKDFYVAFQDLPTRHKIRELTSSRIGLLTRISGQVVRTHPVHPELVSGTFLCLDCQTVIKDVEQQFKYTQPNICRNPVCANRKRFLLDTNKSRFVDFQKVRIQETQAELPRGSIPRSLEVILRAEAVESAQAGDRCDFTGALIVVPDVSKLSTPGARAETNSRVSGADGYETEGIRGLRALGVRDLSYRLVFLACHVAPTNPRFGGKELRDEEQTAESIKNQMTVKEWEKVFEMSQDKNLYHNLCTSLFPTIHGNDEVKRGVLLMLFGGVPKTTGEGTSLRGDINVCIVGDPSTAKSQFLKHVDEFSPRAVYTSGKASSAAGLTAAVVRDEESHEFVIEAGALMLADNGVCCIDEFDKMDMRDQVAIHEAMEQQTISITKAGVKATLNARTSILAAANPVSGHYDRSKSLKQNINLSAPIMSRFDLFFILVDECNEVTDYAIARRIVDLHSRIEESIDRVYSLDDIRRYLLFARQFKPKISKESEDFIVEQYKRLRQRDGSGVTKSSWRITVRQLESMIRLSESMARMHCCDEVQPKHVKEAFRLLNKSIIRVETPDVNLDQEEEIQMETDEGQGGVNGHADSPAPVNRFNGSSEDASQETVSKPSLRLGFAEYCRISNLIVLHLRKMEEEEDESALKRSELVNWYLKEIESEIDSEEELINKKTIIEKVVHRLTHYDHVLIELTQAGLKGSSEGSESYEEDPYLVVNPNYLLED

The other results are listed elsewhere or left out. Most values lie at the level of the controls, where differences are scatter.

Compound in the experiment: CN[C@@H]1C[C@H]2O[C@@](C)([C@@H]1OC)n1c3ccccc3c3c4c(c5c6ccccc6n2c5c31)C(=O)NC4 [staurosporine]
The experiment is described as follows: log2 fold change of tryptic peptide abundance, ligand vs vehicle (limited proteolysis) (log2 ratio); higher = more trypsin-susceptible (destabilized). The note with it: ligand concentration: 20 uM; sample: mouse liver crude lysate; replicate design: treated separately.
With “UniProt P97794 (peptide sequence: SELSHQNSLR, peptide start residue: 372)”, the log2 fold change amounted to 0.482.
On to “UniProt P97325 (peptide sequence: VSASDGFWK, peptide start residue: 247)”, for which the log2 fold change was -0.0267.
For “UniProt P97447 (peptide sequence: YWHDNCFRCAK, peptide start residue: 60)”, the log2 fold change is -0.382.
With “UniProt Q01721 (peptide sequence: GDLPHGPGR, peptide start residue: 300)” the figure was -0.172.
“UniProt Q01514 (peptide sequence: TLSGGITVNGPR, peptide start residue: 279)”: the log2 fold change was -0.462.
Under “UniProt P97496 (peptide sequence: LRHFEELETIMDR, peptide start residue: 903)” stands 0.447; under “UniProt P70274 (peptide sequence: ESEAAPSSCCCHCR, peptide start residue: 292)”, 0.252.
Take “UniProt P98078 (peptide sequence: AKLIGIDDVPDAR, peptide start residue: 52)”: the log2 fold change is -0.398.
Consider “UniProt P97454 (peptide sequence: HNEFNPQHSLLVQFR, peptide start residue: 144)”, for which the log2 fold change turned out to be 0.226.
Under “UniProt P70460 (peptide sequence: YNQATPIFHQWR, peptide start residue: 72)” stands -0.404; under “UniProt P97311 (peptide sequence: LGFAEYCR, peptide start residue: 715)”, 0.333.
